Data: paper PMC3559603
Results are given in words; binding and its absence hold for the method and conditions named. In cells and extracts the contact can be indirect. Some entries that bind do so weakly or less than the wild type.

Chains of the proteins cited; added tags and fusions are not shown.
UniProt P35570: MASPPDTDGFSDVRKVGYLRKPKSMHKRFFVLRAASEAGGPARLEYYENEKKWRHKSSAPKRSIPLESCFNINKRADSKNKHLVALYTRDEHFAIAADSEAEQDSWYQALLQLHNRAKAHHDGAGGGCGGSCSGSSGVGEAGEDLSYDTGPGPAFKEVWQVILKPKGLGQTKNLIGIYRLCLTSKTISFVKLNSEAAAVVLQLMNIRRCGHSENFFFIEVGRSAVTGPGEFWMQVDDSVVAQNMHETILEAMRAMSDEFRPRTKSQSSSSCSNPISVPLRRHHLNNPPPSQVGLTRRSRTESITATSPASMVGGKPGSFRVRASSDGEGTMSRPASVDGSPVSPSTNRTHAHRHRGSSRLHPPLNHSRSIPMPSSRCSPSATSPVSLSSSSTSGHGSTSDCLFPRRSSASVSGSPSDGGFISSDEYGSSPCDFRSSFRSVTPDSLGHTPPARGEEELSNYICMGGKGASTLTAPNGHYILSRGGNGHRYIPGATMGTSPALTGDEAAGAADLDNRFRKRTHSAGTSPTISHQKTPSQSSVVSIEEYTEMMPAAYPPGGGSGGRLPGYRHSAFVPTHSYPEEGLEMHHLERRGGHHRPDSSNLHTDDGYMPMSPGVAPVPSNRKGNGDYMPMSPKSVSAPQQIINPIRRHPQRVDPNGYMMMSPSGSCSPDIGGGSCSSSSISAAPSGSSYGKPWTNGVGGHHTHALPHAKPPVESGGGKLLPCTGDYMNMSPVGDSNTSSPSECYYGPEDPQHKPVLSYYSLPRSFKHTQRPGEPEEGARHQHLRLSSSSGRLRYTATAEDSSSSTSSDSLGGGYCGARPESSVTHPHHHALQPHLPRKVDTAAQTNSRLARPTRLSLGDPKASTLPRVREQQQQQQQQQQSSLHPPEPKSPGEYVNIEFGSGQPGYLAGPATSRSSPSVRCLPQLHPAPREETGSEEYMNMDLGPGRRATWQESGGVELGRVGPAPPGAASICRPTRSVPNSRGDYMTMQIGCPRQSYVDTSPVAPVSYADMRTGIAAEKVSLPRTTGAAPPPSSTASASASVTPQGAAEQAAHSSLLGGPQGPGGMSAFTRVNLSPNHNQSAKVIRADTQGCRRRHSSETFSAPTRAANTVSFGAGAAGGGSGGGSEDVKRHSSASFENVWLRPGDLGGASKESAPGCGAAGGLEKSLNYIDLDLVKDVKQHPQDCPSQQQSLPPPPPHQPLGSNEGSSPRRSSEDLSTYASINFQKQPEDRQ

T1: IRS2 (rat (endogenous in L6)) (UniProt F1MAL5)
T1 sequence: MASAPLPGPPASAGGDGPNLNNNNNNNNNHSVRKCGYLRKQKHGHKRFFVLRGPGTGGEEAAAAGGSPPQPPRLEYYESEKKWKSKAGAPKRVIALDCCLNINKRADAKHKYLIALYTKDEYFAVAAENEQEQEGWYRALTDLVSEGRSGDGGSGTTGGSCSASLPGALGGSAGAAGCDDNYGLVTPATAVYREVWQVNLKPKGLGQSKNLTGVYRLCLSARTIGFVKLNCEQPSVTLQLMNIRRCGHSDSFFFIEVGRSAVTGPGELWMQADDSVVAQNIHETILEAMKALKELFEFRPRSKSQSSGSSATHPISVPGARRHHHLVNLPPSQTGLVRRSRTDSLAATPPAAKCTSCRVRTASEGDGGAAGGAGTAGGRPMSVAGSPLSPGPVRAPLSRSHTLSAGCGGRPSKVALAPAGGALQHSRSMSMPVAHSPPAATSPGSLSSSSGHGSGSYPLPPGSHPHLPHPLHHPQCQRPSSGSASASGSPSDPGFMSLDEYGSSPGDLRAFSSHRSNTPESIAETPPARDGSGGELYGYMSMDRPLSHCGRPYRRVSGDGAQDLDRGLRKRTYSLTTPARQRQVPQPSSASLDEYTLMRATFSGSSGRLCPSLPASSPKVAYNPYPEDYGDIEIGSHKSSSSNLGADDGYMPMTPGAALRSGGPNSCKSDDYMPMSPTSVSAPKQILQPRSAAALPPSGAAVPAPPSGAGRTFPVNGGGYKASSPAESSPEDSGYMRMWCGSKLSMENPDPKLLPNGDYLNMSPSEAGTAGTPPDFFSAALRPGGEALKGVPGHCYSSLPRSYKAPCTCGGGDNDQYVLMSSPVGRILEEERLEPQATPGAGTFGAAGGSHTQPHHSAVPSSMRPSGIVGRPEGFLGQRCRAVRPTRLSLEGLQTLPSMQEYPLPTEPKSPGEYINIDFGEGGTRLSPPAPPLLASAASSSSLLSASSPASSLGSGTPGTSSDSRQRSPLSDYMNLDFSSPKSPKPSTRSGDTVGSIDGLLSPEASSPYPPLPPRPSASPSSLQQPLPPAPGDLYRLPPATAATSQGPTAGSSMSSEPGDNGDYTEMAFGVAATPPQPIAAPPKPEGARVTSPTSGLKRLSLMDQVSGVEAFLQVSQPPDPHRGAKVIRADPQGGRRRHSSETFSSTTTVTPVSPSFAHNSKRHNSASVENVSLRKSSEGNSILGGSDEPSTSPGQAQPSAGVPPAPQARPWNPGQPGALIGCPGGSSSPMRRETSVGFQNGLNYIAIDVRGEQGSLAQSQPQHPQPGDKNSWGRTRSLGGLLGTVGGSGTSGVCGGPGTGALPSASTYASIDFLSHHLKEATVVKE


How the values were obtained:
[1] = molecular target: insulin receptor substrate 1 (rat (endogenous in L6)) (UniProt P35570); experiment: co-IP; L6 myotubes serum starved, then stimulated with insulin (100 nM for 5, 20 and 60 min; 10 nM in Fig. 4B); lysates immunoprecipitated with IRS1 or IRS2 antibodies, western blot; also cells transfected with scrambled or nexilin siRNA
[2] = molecular target: T1, IRS2 (rat (endogenous in L6)); experiment: co-IP; serum starved (basal) L6 myotubes; lysates immunoprecipitated with IRS1 or IRS2 antibodies, western blot; also cells pretreated with Latrunculin B (20 µM, 20 min) or jasplakinolide (2 µM, 30 min) before insulin, in which disassembly of the complex was inhibited; also cells transfected with scrambled or nexilin siRNA
[3] = molecular target: insulin receptor substrate 1 (rat (endogenous in L6)) (UniProt P35570); experiment: as above
[4] = molecular target: T1, IRS2 (rat (endogenous in L6)); experiment: co-IP; L6 myotubes serum starved, then stimulated with insulin (100 nM for 5, 20 and 60 min; 10 nM in Fig. 4B); lysates immunoprecipitated with IRS1 or IRS2 antibodies, western blot; also cells transfected with scrambled or nexilin siRNA
[5] = molecular target: insulin receptor substrate 1 (rat (endogenous in L6)) (UniProt P35570); experiment: condition: only cells stimulated with 100 nM insulin; co-IP; L6 myotubes serum starved, then stimulated with insulin (100 nM for 5, 20 and 60 min; 10 nM in Fig. 4B); lysates immunoprecipitated with IRS1 or IRS2 antibodies, western blot; also cells transfected with scrambled or nexilin siRNA

Row | Molecule | binding [1] | binding [2] | binding [3] | binding [4] | binding [5]
1 | p85α the regulatory subunit of the Type 1A phosphatidylinositol-3-kinase (PI3K) (from UniProt Q63787-1 1-724) | binds | – | – | – | –
2 | nexilin (protein, UniProt Q9Z2J4 1-656) MNDVSQKAEILLSSSKPVPKSYVPKLGKGDVKDKFEAMQRAREERNQRRSRDEKQRRKEQYIREREWNRRKQEIKDMLASDEEEEPSKVEKAYVPKLTGTVKGKFDEMEKHRQEEQRKRTEEERKRRIEQDLLEKRKMQRELAKRAEQEGDDSLLITVVPAKSYRAAANRKDPEDLDREHRNGRVSQEEEKTRHEEECRALKEAKCLSLVMDDETEAKKESRFPGKLKSTFEELERQRQENRKKQAEEEARRRLEEERRAFEEARRNMVNEEDESQDTETVFKEYRPGKLRLSFEEIERQRREEEKRKAEEEARRRMEEEKKAFAEARRSMVLDDDSPEIYKAVSQESLTPGKLEINFEQLLRQKMEEERRRTEEERRQKLEMEKQEFEQLRQEMGKEEEENESFGLSREYEELIKLKRSGSIQAKNLKSKFEKIGQLSEKEVQKKIEEERAKRRAIDLEIKEREAENFHEDDDVDVKPAKKSESPFTHKVNMKARFEQMAKARQEEEQRRIEEQKLLRMQFEQKEIDAALQKKREDDEEEEGSIVNGSTTEDEEQTRSGAPWFKKPLRNTSVVDSEPVRFTVKVTGEPKPEVTWWFEGELLQDGEDYQYIERGETYCLYLPETFPEDGGEYMCKAVNSKGSAASTCILTIEMDDY | – | no binding | binds | no binding | no binding
